These are yes or no findings as the source states them, for the method shown. In cells and extracts the contact can be indirect. Here binding means that the protein was enriched with, or labelled near, the bait; the list need not be complete. Tags and fused reporters may be left off the sequences shown.
T1: GFP-DNAJC17 fusion protein (mouse) (UniProt Q91WT4)
T1 sequence: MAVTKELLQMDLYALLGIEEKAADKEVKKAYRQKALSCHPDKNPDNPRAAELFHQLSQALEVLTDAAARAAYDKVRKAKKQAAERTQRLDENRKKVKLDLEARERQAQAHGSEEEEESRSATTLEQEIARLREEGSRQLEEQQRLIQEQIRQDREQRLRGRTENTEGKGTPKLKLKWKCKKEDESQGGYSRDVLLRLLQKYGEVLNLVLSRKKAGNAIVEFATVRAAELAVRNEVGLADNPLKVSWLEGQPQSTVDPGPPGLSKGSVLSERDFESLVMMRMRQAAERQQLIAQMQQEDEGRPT

Chains of the proteins cited; added tags and fusions are not shown.
UniProt Q99459: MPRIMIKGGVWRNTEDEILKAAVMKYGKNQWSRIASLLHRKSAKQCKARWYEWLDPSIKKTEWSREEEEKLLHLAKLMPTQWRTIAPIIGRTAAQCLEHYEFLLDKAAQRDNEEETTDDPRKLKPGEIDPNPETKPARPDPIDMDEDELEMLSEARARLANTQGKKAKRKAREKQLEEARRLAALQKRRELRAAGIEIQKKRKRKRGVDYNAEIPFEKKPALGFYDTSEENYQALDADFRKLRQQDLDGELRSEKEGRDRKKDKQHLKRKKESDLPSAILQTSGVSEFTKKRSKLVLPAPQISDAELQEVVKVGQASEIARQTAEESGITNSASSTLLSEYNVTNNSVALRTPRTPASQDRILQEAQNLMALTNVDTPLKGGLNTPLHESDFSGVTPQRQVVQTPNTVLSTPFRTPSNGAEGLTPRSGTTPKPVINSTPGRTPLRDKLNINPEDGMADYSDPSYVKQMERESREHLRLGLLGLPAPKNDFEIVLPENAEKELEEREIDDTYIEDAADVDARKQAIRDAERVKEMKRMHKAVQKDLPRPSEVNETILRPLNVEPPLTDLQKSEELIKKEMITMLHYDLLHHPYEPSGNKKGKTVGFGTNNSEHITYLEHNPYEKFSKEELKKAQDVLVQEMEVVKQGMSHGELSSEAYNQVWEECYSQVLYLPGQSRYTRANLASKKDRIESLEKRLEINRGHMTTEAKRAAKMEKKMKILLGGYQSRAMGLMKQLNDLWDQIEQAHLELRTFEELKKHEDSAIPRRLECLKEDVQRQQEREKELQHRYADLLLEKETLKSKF
UniProt O75643: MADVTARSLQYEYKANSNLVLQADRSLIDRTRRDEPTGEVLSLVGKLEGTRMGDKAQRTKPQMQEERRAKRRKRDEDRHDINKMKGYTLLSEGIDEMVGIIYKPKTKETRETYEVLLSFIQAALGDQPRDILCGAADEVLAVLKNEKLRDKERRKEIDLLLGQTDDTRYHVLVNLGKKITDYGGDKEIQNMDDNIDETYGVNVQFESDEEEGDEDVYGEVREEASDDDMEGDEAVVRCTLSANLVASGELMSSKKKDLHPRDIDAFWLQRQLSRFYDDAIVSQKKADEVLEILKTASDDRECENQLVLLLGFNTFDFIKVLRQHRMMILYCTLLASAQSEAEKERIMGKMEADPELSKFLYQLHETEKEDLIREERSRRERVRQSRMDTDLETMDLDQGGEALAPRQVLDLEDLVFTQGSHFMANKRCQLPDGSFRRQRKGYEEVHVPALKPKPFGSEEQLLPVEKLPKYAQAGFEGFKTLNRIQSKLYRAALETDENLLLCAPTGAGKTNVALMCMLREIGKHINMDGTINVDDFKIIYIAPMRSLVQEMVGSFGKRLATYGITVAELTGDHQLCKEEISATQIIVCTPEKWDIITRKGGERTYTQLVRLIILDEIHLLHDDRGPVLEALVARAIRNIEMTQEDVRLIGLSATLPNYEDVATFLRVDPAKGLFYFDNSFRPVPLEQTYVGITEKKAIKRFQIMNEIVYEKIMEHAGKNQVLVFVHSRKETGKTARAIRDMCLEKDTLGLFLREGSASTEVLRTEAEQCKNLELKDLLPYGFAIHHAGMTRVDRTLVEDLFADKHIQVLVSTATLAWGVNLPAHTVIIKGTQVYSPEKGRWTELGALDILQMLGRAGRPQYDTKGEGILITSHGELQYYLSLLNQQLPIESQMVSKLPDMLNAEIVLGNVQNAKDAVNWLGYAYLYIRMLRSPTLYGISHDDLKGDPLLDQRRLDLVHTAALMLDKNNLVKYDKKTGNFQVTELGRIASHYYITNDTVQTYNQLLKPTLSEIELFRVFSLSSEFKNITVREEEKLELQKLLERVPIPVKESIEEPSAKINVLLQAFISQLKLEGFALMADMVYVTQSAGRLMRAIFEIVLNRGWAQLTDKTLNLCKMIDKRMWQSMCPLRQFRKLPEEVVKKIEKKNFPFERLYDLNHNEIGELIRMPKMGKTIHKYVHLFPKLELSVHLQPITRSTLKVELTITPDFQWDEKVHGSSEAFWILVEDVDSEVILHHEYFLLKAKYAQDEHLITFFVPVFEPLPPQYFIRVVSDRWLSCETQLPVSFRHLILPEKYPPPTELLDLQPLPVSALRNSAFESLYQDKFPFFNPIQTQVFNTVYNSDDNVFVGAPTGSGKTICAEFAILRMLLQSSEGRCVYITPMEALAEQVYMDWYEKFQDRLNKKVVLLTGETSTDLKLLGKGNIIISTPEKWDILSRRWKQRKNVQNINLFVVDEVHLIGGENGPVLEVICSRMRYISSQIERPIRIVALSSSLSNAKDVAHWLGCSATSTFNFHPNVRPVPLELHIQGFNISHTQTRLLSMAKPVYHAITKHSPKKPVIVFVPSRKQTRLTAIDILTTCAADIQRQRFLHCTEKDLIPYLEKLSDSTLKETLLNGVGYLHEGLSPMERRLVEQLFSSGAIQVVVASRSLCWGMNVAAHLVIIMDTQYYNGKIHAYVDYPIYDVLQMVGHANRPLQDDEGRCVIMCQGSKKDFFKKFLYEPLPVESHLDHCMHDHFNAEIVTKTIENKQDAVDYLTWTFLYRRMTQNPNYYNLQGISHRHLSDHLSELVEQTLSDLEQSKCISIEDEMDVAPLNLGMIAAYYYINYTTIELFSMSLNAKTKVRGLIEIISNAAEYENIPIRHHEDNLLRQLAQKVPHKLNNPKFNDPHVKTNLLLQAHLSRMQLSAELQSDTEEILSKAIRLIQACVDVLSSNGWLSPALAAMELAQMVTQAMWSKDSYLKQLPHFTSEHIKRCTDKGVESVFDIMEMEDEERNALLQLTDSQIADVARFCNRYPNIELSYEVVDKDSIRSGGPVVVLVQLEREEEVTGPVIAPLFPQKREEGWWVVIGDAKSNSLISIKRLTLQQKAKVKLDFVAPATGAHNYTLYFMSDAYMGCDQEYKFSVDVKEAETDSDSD

B1: XAB2 (protein, UniProt Q9HCS7 1-855)
chain: MVVMARLSRPERPDLVFEEEDLPYEEEIMRNQFSVKCWLRYIEFKQGAPKPRLNQLYERALKLLPCSYKLWYRYLKARRAQVKHRCVTDPAYEDVNNCHERAFVFMHKMPRLWLDYCQFLMDQGRVTHTRRTFDRALRALPITQHSRIWPLYLRFLRSHPLPETAVRGYRRFLKLSPESAEEYIEYLKSSDRLDEAAQRLATVVNDERFVSKAGKSNYQLWHELCDLISQNPDKVQSLNVDAIIRGGLTRFTDQLGKLWCSLADYYIRSGHFEKARDVYEEAIRTVMTVRDFTQVFDSYAQFEESMIAAKMETASELGREEEDDVDLELRLARFEQLISRRPLLLNSVLLRQNPHHVHEWHKRVALHQGRPREIINTYTEAVQTVDPFKATGKPHTLWVAFAKFYEDNGQLDDARVILEKATKVNFKQVDDLASVWCQCGELELRHENYDEALRLLRKATALPARRAEYFDGSEPVQNRVYKSLKVWSMLADLEESLGTFQSTKAVYDRILDLRIATPQIVINYAMFLEEHKYFEESFKAYERGISLFKWPNVSDIWSTYLTKFIARYGGRKLERARDLFEQALDGCPPKYAKTLYLLYAQLEEEWGLARHAMAVYERATRAVEPAQQYDMFNIYIKRAAEIYGVTHTRGIYQKAIEVLSDEHAREMCLRFADMECKLGEIDRARAIYSFCSQICDPRTTGAFWQTWKDFEVRHGNEDTIKEMLRIRRSVQATYNTQVNFMASQMLKVSGSATGTVSDLAPGQSGMDDMKLLEQRAEQLAAEAERDQPLRAQSKILFVRSDASREELAELAQQVNPEEIQLGEDEDEDEMDLEPNEVRLEQQSVPAAVFGSLKED
B2: PLRG1 (protein, UniProt O43660 1-514)
chain: MVEEVQKHSVHTLVFRSLKRTHDMFVADNGKPVPLDEESHKRKMAIKLRNEYGPVLHMPTSKENLKEKGPQNATDSYVHKQYPANQGQEVEYFVAGTHPYPPGPGVALTADTKIQRMPSESAAQSLAVALPLQTKADANRTAPSGSEYRHPGASDRPQPTAMNSIVMETGNTKNSALMAKKAPTMPKPQWHPPWKLYRVISGHLGWVRCIAVEPGNQWFVTGSADRTIKIWDLASGKLKLSLTGHISTVRGVIVSTRSPYLFSCGEDKQVKCWDLEYNKVIRHYHGHLSAVYGLDLHPTIDVLVTCSRDSTARIWDVRTKASVHTLSGHTNAVATVRCQAAEPQIITGSHDTTIRLWDLVAGKTRVTLTNHKKSVRAVVLHPRHYTFASGSPDNIKQWKFPDGSFIQNLSGHNAIINTLTVNSDGVLVSGADNGTMHLWDWRTGYNFQRVHAAVQPGSLDSESGIFACAFDQSESRLLTAEADKTIKVYREDDTATEETHPVSWKPEIIKRKRF

Target: T1, GFP-DNAJC17 fusion protein (mouse)
Test: affinity purification with mass spectrometry; total extracts of tetracycline-induced GFP-DNAJC17 or GFP HeLa cells, GFP trap beads 2 h at 4 °C, lysis buffer 50 mM Tris pH 7.4, 150 mM NaCl, 10 mM EDTA, 2 mM MgCl2, 0.1% Triton X100, washes with 200 mM NaCl; eluates on SDS-PAGE, in-gel trypsin digestion, nanoLC-ESI-LIT-MS/MS

Row | binding | Molecule
1 | binds | CDC5L (from UniProt Q99459 1-802)
2 | binds | SNRNP200 (from UniProt O75643 1-2136)
3 | binds | B1
4 | binds | B2
